These are yes or no findings as the source states them, for the method shown. Some results given as binding are weak or reduced against the parent protein; the word gives no strength.
Target: human CD3 on HuT-78 cells (human) (UniProt P07766)
Assay: flow cytometry, hybridoma supernatant on HuT-78 cells, Alexa 647 anti-human IgG

Amino acid sequences for entries named in this document (tags omitted). A change or cut given only in a name is not applied to a line headed by its entry.
UniProt P07766: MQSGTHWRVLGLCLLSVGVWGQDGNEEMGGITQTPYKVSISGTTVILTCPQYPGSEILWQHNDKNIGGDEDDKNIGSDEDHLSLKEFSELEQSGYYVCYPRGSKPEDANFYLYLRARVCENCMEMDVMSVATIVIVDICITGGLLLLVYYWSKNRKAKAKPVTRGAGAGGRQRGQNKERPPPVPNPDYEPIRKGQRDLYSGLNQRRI

binding: binds
B1: anti-CD3 monoclonal antibody KM14 (antibody, V domains shown)
VH: QVQLVESGGGVVQPGRSLRLSCEASGFTFSSHGMHWVRQAPGKGLEWVASIWYDGSKKYYADSVKGRFTISRDNSKNTLDLQMNSLRAEDTAVYYCAKTLYYYGSERAHGLDVWGQGTTVTVSS
VL: AIQLTQSPSSLSASVGDRVTITCRASQGISSALAWYQQKPGKAPNLLIYDASSLESGVPSRFSGSGSGTDFTLTISSLQPEDFATYYCQQFNSYPRTFGQGTKVEIK
